Assay: general procedure: Fmoc solid-phase peptide synthesis; Sieber amide resin; PyBOP/DIEA (cyclisation)
Details: whole synthesis, scale of the general procedure 70 umol resin, side-chain lactam ring, sequence written open

DOTA-Nle-CycMSHhex
isolated yield (overall): 30% | final purity (method not given): greater than 95%
